Test results taken from PubChem BioAssay AID1487 (National Center for Advancing Translational Sciences (NCATS), 2009).
Values joined by “and” are separate entries in the source; they are usually repeats but may differ in a detail not shown here. Equal values may be shown once. The list shows a part of the results. Shown are side measurements of this screen, not its main read-out; they come without a call. The list favours compounds with an active or inconclusive main result. Words in brackets tell the shape of the fitted curve; partial curves, single points and poor fits give uncertain potencies.

Assay: qHTS Assay for Modulators of Lamin A Splicing
Settings: HeLa LMNA splicing GFP/RFP minigene ratio, 48 h
Outline: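 S3 HeLa cells stably expressing lamin A-EGFP splicing minigene plus DsRed2, 600 cells/well, 48 h compound exposure at 37C. Laser-scanning cytometry; analysed as GFP (500-530 nm)/RFP (575-640 nm) total intensity ratio; 0.5% DMSO vehicle.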

[1] = measured here: RFP viability control channel
[2] = measured here: GFP splicing reporter channel

Compound	AC50 [1]	AC50 [2]
Cc1nnnn1/C(=C\c1ccccc1)C(=O)OCC(=O)NC(C)(C)C	11.2 µM [rising, partial curve]	
Cc1ccc(NC(=O)c2oc3ccccc3c2NC(=O)C2CCCO2)cc1C (stereo not drawn)	20 µM [rising, partial curve, poor fit]	
CCn1c(=N)c(C(=O)NC)cc2c(=O)n3cccc(C)c3nc21		0.0447 µM [falling, full curve, poor fit]
O=C(Nc1cccnc1)C1CCCN1S(=O)(=O)c1ccc(Cl)c(Cl)c1 (stereo not drawn)	31.6 µM [rising, single point]	22.4 µM [rising, single point]
CCN(CC)CCCNC(=O)c1cc2c(Cl)nc3ccccc3c2s1	12.6 µM [rising, single point]	
C[C@@H]1CCN(C(=O)[C@H](CCCNC(=N)N)NS(=O)(=O)c2cccc3c2NC[C@H](C)C3)[C@@H](C(=O)O)C1	35.5 µM [falling, single point]	35.5 µM [falling, single point]
COc1ccc(Br)cc1CNC(=O)CCNC(=O)Cn1ccc2ccccc2c1=O		3.98 µM [falling, partial curve, poor fit]
C=CCn1c(SCC(=O)Nc2cccnc2Cl)nnc1-c1ccc(C(C)(C)C)cc1	20 µM [rising, partial curve]	
Cc1ccc(C(=O)CSc2nnc(-c3ccccc3N)n2C)cc1C	22.4 µM [rising, partial curve]	20 µM [rising, single point]
Cc1cccc(OCC(=O)N/N=C/c2ccc3c(c2)OCO3)c1	25.1 µM [rising, single point]	35.5 µM [rising, single point]
COc1ccc(/C=C/C(=O)c2ccc(O)cc2)cc1COc1ccc(F)cc1		35.5 µM [falling, single point]
COc1ccccc1/C=C/C=N/n1c(-c2ccc(C)cc2)n[nH]c1=S	14.1 µM [rising, single point]	31.6 µM [rising, single point]
CCn1c(COc2ccc3c(c2)CCCC3)nnc1SCC(=O)Nc1ccc(C(=O)OC)cc1		12.6 µM [falling, partial curve, poor fit]
OCCN(CCO)c1nc(N2CCCCC2)c2nc(N(CCO)CCO)nc(N3CCCCC3)c2n1	2.24 µM [falling, partial curve] and 3.98 nM [rising, full curve, poor fit] and 15.8 µM [rising, partial curve, poor fit]	3.55 µM [falling, partial curve, poor fit] and 10 µM [rising, partial curve]
Cc1ccc(C2CC(=O)C(C=NCCN3CCN(CC(=O)Nc4cc(C)cc(C)c4)CC3)=C(O)C2)cc1 (stereo not drawn)	31.6 µM [rising, single point]	11.2 µM [rising, partial curve, poor fit]
O=C(CNC(c1ccccc1)c1ccccc1)Nc1cc([N+](=O)[O-])ccc1Cl	31.6 µM [rising, single point]	31.6 µM [rising, single point]
COC(=O)N/N=C(\C)c1ccc(-n2ccnc2)cc1	3.55 µM [falling, full curve, poor fit]	3.16 µM [falling, single point]
Cc1cccc(C)c1-n1nnnc1S(=O)(=O)Cc1ccccc1Cl	31.6 µM [rising, single point]	12.6 µM [rising, single point]
CCn1c(SCC(=O)Nc2nc3ccc(OC)cc3s2)nc2c1c(=O)n(C)c(=O)n2C		17.8 µM [rising, partial curve]
CCC1CN(C(=O)N2CCC(C(=O)NCCCc3ccccc3)CC2)c2cc(C)ccc2O1 (stereo not drawn)	0.178 µM [falling, full curve, poor fit]	
CC(=O)Nc1ccccc1C(=O)C(=O)Nc1cccc(C(=O)NCc2ccc(C)cc2)c1	0.398 µM [rising, full curve, poor fit]	
COc1ccc(S(=O)(=O)N(CC(=O)Nc2ccc(S(=O)(=O)N3CCOCC3)cc2)Cc2ccc(F)cc2)cc1	11.2 µM [rising, single point]	
O=C(CCCc1ccccc1)NCc1ccc(F)cc1	3.55 µM [rising, full curve, poor fit]	3.55 µM [rising, full curve, poor fit]
CCOC(=O)c1ccc(NC(=O)CN2C(=O)C(C)(C)c3ccccc32)cc1	7.94 µM [falling, full curve]	35.5 µM [falling, partial curve]
Cc1ccc(C)c(NC(=O)c2cnn(-c3ccc(F)cc3F)c2C2CCNCC2)c1		0.794 µM [falling, full curve, poor fit]

Compound	AC50 [1]	AC50 [2]
O=C(NC1CC1)c1ccc2c(c1)C1C3CCC(C3)C1C(c1ccccc1)N2 (stereo not drawn)	17.8 µM [rising, single point]	
Cc1ncc(C[n+]2csc(CCOP(=O)(O)OP(=O)(O)O)c2C)c(N)n1	2.82 µM [falling, single point]	17.8 µM [falling, single point]
Cn1c(=O)c2nc(NCc3ccccc3)cnc2n(C)c1=O	17.8 µM [rising, partial curve, poor fit]	
O=C(O)c1ccc(CSc2nnc(SCc3ccccc3)s2)cc1	35.5 µM [rising, single point]	
COc1ccc(N2CCN(C(=O)c3ccc(N4C(=O)NC5CC4(C)Oc4ccccc45)cc3)CC2)cc1 (stereo not drawn)	12.6 µM [rising, single point]	
Nc1nc(NC(=O)c2ccccc2)nn1-c1ccccc1	0.562 µM [falling, full curve, poor fit]	
Cc1cc(O)c(C(c2ccccc2)N2CCC(C)CC2)c(=O)n1Cc1ccco1 (stereo not drawn)	4.47 µM [falling, single point]	
Cc1cccc(OCC(=O)Nc2ccc(S(=O)(=O)N3CCCC3)cc2)c1	11.2 µM [rising, partial curve]	
CC(=O)c1ccc(NC(=O)CSc2nnc3ccc(-c4ccc(F)cc4)nn23)cc1		0.562 µM [rising, full curve, poor fit]
Cc1ccc([N+](=O)[O-])cc1-c1ccc(/C=N\n2nnnc2N)o1	7.08 µM [falling, full curve]	4.47 µM [falling, partial curve]
CCC1=C(c2ccc(C)cc2)S(=O)(=O)N=C1N1CCC(C(=O)Nc2ccccc2C(=O)OC)CC1		15.8 µM [falling, single point]
O=c1c2c3nc4ccccc4nc3n(Cc3ccccc3)c2ncn1Cc1ccco1	25.1 µM [falling, single point]	35.5 µM [falling, single point]
CCOC(=O)c1sc(Nc2nc3c(F)cccc3s2)cc1C	5.62 µM [rising, partial curve]	14.1 µM [rising, partial curve, poor fit]
CC(=O)Nc1ccc(NCc2nnc3n2CCCCC3)cc1	14.1 µM [rising, partial curve, poor fit]	0.112 µM [rising, full curve, poor fit]
Cc1ccc(NC(=O)c2c(C)nn(-c3ccccc3)c2Cl)cc1	0.0282 µM [rising, full curve, poor fit]	
COC(=O)c1ccc(N2CCN(S(=O)(=O)c3ccc4ccccc4c3)CC2)c([N+](=O)[O-])c1	12.6 µM [rising, partial curve, poor fit]	
O=C(NCc1ccco1)c1cc2nc(C3CC3)cc(C(F)(F)F)n2n1	4.47 µM [falling, full curve, poor fit]	5.62 µM [falling, single point]
Cc1nnc(N2CCN(C(=O)Nc3cc(F)ccc3F)CC2)c2nn(-c3ccc(Cl)cc3)c(C)c12	11.2 µM [falling, partial curve]	12.6 µM [falling, partial curve]
c1ccc(CCSc2ncnc3nc[nH]c23)cc1	12.6 µM [rising, partial curve]	14.1 µM [rising, partial curve]
O=C(Nc1ccccc1)N1CCCC(c2nc(-c3cccs3)no2)C1 (stereo not drawn)	15.8 µM [rising, single point]	14.1 µM [rising, single point]
COc1ccc(N2CCN(C(=O)CNS(=O)(=O)c3ccc(C)c(C)c3)CC2)cc1	5.01 µM [falling, single point]	0.0398 µM [falling, full curve, poor fit]
CS(=O)(=O)c1cc([N+](=O)[O-])c(Sc2nc3ccccc3[nH]2)c([N+](=O)[O-])c1	35.5 µM [falling, single point]	35.5 µM [falling, single point]
CC1CCCN(CCC(=O)c2ccc(Br)cc2)C1 (stereo not drawn)	11.2 µM [rising, single point]	
CC(/C=C1\SC(=S)N(C(C(=O)O)C(C)C)C1=O)=C\c1ccccc1 (stereo not drawn)		8.91 µM [falling, partial curve]
O=C(Nc1nc(-c2ccc(S(=O)(=O)N3CCCC3)cc2)cs1)C1COc2ccccc2O1 (stereo not drawn)	11.2 µM [rising, partial curve]	

Among those listed so far, 4 contain a nitro group on carbon:
Compound	AC50 [1]	AC50 [2]
O=C(CNC(c1ccccc1)c1ccccc1)Nc1cc([N+](=O)[O-])ccc1Cl	31.6 µM [rising, single point]	31.6 µM [rising, single point]
Cc1ccc([N+](=O)[O-])cc1-c1ccc(/C=N\n2nnnc2N)o1	7.08 µM [falling, full curve]	4.47 µM [falling, partial curve]
COC(=O)c1ccc(N2CCN(S(=O)(=O)c3ccc4ccccc4c3)CC2)c([N+](=O)[O-])c1	12.6 µM [rising, partial curve, poor fit]	
CS(=O)(=O)c1cc([N+](=O)[O-])c(Sc2nc3ccccc3[nH]2)c([N+](=O)[O-])c1	35.5 µM [falling, single point]	35.5 µM [falling, single point]
